{"source": "the supplement of paper PMC10077471", "note": "Whole data set: some 1,900 compounds, median “excess over highest single agent (ExcessHSA) synergy score, 6x6 matrix” near -83, cut for the lowest 2% near -370. The list shows a part of the results."}
{"test_system": "NCI-H446", "test": "excess over highest single agent (ExcessHSA) synergy score, 6x6 matrix; higher = less synergy (more negative = stronger synergy)", "settings": "72 h; CellTiter-Glo viability"}
{"smiles": "CC1=C(C)C(=O)C(C(CCCCCC(=O)O)c2ccccc2)=C(C)C1=O", "note": "(stereo unspecified) + Cc1sc2c(c1C)C(c1ccc(Cl)cc1)=N[C@@H](CC(=O)OC(C)(C)C)c1nnc(C)n1-2 [NCGC00250412-19]", "excess over highest single agent": -240}
{"smiles": "Cc1nc2c([nH]1)-c1ccccc1N(C(=O)c1ccc(NC(=O)c3ccccc3-c3ccccc3)cc1)CC2", "note": "+ Cc1sc2c(c1C)C(c1ccc(Cl)cc1)=N[C@@H](CC(=O)OC(C)(C)C)c1nnc(C)n1-2 [NCGC00250412-19]", "excess over highest single agent": -102}
{"smiles": "CC=CC(=O)N(CC)c1ccccc1C", "note": "+ Cc1sc2c(c1C)C(c1ccc(Cl)cc1)=N[C@@H](CC(=O)OC(C)(C)C)c1nnc(C)n1-2 [NCGC00250412-19]", "excess over highest single agent": -84.3}
{"smiles": "O=C(C1CC1)N1CC[C@@H](Cn2c(-c3ccc(-c4ccc5occc5c4)cc3)nc3cnccc32)C1", "note": "+ Cc1sc2c(c1C)C(c1ccc(Cl)cc1)=N[C@@H](CC(=O)OC(C)(C)C)c1nnc(C)n1-2 [NCGC00250412-19]", "excess over highest single agent": -33.3}
{"smiles": "Cc1cnc(Nc2ccc(OCCN3CCCC3)cc2)nc1Nc1cccc(S(=O)(=O)NC(C)(C)C)c1", "note": "+ Cc1sc2c(c1C)C(c1ccc(Cl)cc1)=N[C@@H](CC(=O)OC(C)(C)C)c1nnc(C)n1-2 [NCGC00250412-19]", "excess over highest single agent": -181}
{"smiles": "COc1ccc(-c2nc(N3CCOCC3)c3sc(CN(C)c4ncc(C(=O)NO)cn4)cc3n2)cn1", "note": "+ Cc1sc2c(c1C)C(c1ccc(Cl)cc1)=N[C@@H](CC(=O)OC(C)(C)C)c1nnc(C)n1-2 [NCGC00250412-19]", "excess over highest single agent": -105}
{"smiles": "C[C@]12C=CC(=O)N[C@@H]1CC[C@@H]1[C@@H]2CC[C@]2(C)[C@@H](C(=O)Nc3cc(C(F)(F)F)ccc3C(F)(F)F)CC[C@@H]12", "note": "+ Cc1sc2c(c1C)C(c1ccc(Cl)cc1)=N[C@@H](CC(=O)OC(C)(C)C)c1nnc(C)n1-2 [NCGC00250412-19]", "excess over highest single agent": -149}
{"smiles": "CN(C)[C@@H]1C(=O)C(C(N)=O)=C(O)[C@@]2(O)C(=O)C3=C(O)c4c(O)cccc4[C@@](C)(O)[C@H]3C[C@@H]12", "note": "+ Cc1sc2c(c1C)C(c1ccc(Cl)cc1)=N[C@@H](CC(=O)OC(C)(C)C)c1nnc(C)n1-2 [NCGC00250412-19]", "excess over highest single agent": 40.3}
{"smiles": "CN(C)S(=O)(=O)c1ccc2c(c1)/C(=C/c1cc3c([nH]1)CCCC3)C(=O)N2", "note": "+ Cc1sc2c(c1C)C(c1ccc(Cl)cc1)=N[C@@H](CC(=O)OC(C)(C)C)c1nnc(C)n1-2 [NCGC00250412-19]", "excess over highest single agent": -179}
{"smiles": "Clc1cccc(Cl)c1NC1=NCCN1", "note": "+ Cc1sc2c(c1C)C(c1ccc(Cl)cc1)=N[C@@H](CC(=O)OC(C)(C)C)c1nnc(C)n1-2 [NCGC00250412-19]", "excess over highest single agent": -13.3}
{"smiles": "CO[C@H]1/C=C/O[C@@]2(C)Oc3c(C)c(O)c4c(O)c(c5c(nc6cc(C)ccn65)c4c3C2=O)NC(=O)/C(C)=C\\C=C\\[C@H](C)[C@H](O)[C@@H](C)[C@@H](O)[C@@H](C)[C@H](OC(C)=O)[C@@H]1C", "note": "+ Cc1sc2c(c1C)C(c1ccc(Cl)cc1)=N[C@@H](CC(=O)OC(C)(C)C)c1nnc(C)n1-2 [NCGC00250412-19]", "excess over highest single agent": -138}
{"smiles": "O=P(O)(O)C(O)(Cn1ccnc1)P(=O)(O)O", "note": "+ Cc1sc2c(c1C)C(c1ccc(Cl)cc1)=N[C@@H](CC(=O)OC(C)(C)C)c1nnc(C)n1-2 [NCGC00250412-19]", "excess over highest single agent": -67.9}
{"smiles": "Cc1cc(C(C)(C)C)cc(C)c1CC1=NCCN1", "note": "+ Cc1sc2c(c1C)C(c1ccc(Cl)cc1)=N[C@@H](CC(=O)OC(C)(C)C)c1nnc(C)n1-2 [NCGC00250412-19]", "excess over highest single agent": -68.7}
{"smiles": "CC(C)(CO)[C@@H](O)C(=O)NCCC(=O)O", "note": "+ Cc1sc2c(c1C)C(c1ccc(Cl)cc1)=N[C@@H](CC(=O)OC(C)(C)C)c1nnc(C)n1-2 [NCGC00250412-19]", "excess over highest single agent": -84.9}
{"smiles": "COc1ccc2c3n(c(=NC(=O)c4cccnc4)nc2c1OC)CCN3", "note": "+ Cc1sc2c(c1C)C(c1ccc(Cl)cc1)=N[C@@H](CC(=O)OC(C)(C)C)c1nnc(C)n1-2 [NCGC00250412-19]", "excess over highest single agent": -292}
{"smiles": "CC#CCn1c(N2CCC[C@@H](N)C2)nc2c1c(=O)n(Cc1nc(C)c3ccccc3n1)c(=O)n2C", "note": "+ Cc1sc2c(c1C)C(c1ccc(Cl)cc1)=N[C@@H](CC(=O)OC(C)(C)C)c1nnc(C)n1-2 [NCGC00250412-19]", "excess over highest single agent": -192}
{"smiles": "CNC(=O)c1ccc(N2C(=S)N(c3ccc(C#N)c(C(F)(F)F)c3)C(=O)C2(C)C)cc1F", "note": "+ Cc1sc2c(c1C)C(c1ccc(Cl)cc1)=N[C@@H](CC(=O)OC(C)(C)C)c1nnc(C)n1-2 [NCGC00250412-19]", "excess over highest single agent": -276}
{"smiles": "CN1[C@@H]2C[C@@H](OC(=O)[C@H](CO)c3ccccc3)C[C@H]1[C@@H]1O[C@@H]12", "note": "+ Cc1sc2c(c1C)C(c1ccc(Cl)cc1)=N[C@@H](CC(=O)OC(C)(C)C)c1nnc(C)n1-2 [NCGC00250412-19]", "excess over highest single agent": -11.6}
{"smiles": "COc1cc(OC)c(NC(=O)Nc2cc(C)on2)cc1Cl", "note": "+ Cc1sc2c(c1C)C(c1ccc(Cl)cc1)=N[C@@H](CC(=O)OC(C)(C)C)c1nnc(C)n1-2 [NCGC00250412-19]", "excess over highest single agent": -142}
{"smiles": "N#C/C(=C(/N)Sc1ccc(N)cc1)c1ccccc1C(F)(F)F", "note": "+ Cc1sc2c(c1C)C(c1ccc(Cl)cc1)=N[C@@H](CC(=O)OC(C)(C)C)c1nnc(C)n1-2 [NCGC00250412-19]", "excess over highest single agent": -146}
{"smiles": "COc1cc2nc(N3CCN(C(=O)C4COc5ccccc5O4)CC3)nc(N)c2cc1OC", "note": "(stereo unspecified) + Cc1sc2c(c1C)C(c1ccc(Cl)cc1)=N[C@@H](CC(=O)OC(C)(C)C)c1nnc(C)n1-2 [NCGC00250412-19]", "excess over highest single agent": 68.4}
{"smiles": "O=c1c(O)c(-c2ccc(O)cc2)oc2cc(O)cc(O)c12", "note": "+ Cc1sc2c(c1C)C(c1ccc(Cl)cc1)=N[C@@H](CC(=O)OC(C)(C)C)c1nnc(C)n1-2 [NCGC00250412-19]", "excess over highest single agent": -136}
{"smiles": "FC(F)(F)c1ccc(Nc2nc3ccc(Oc4ccnc(-c5ncc(C(F)(F)F)[nH]5)c4)cc3[nH]2)cc1", "note": "+ Cc1sc2c(c1C)C(c1ccc(Cl)cc1)=N[C@@H](CC(=O)OC(C)(C)C)c1nnc(C)n1-2 [NCGC00250412-19]", "excess over highest single agent": -7.92}
{"smiles": "CC(C)(C)c1cc(NC(=O)Nc2ccc(-c3cn4c(n3)sc3cc(OCCN5CCOCC5)ccc34)cc2)no1", "note": "+ Cc1sc2c(c1C)C(c1ccc(Cl)cc1)=N[C@@H](CC(=O)OC(C)(C)C)c1nnc(C)n1-2 [NCGC00250412-19]", "excess over highest single agent": -142}
{"smiles": "CCOc1ccccc1N=Nc1c(C)[nH]n(-c2nc(-c3ccccc3)cs2)c1=O", "note": "+ Cc1sc2c(c1C)C(c1ccc(Cl)cc1)=N[C@@H](CC(=O)OC(C)(C)C)c1nnc(C)n1-2 [NCGC00250412-19]", "excess over highest single agent": -77.9}
{"smiles": "CC1(C)Cc2c(-c3ccccc3)c(-c3ccc(Cl)cc3)c(CC(=O)O)n2C1", "note": "+ Cc1sc2c(c1C)C(c1ccc(Cl)cc1)=N[C@@H](CC(=O)OC(C)(C)C)c1nnc(C)n1-2 [NCGC00250412-19]", "excess over highest single agent": -140}
{"smiles": "O=C(/C=C/c1cccc(S(=O)(=O)Nc2ccccc2)c1)NO", "note": "+ Cc1sc2c(c1C)C(c1ccc(Cl)cc1)=N[C@@H](CC(=O)OC(C)(C)C)c1nnc(C)n1-2 [NCGC00250412-19]", "excess over highest single agent": -269}
{"smiles": "NC[C@H]1O[C@H](O[C@H]2[C@H](O)[C@@H](O[C@H]3O[C@H](CO)[C@@H](O)[C@H](N)[C@H]3O)[C@H](N)C[C@@H]2N)[C@H](N)C[C@@H]1O", "note": "+ Cc1sc2c(c1C)C(c1ccc(Cl)cc1)=N[C@@H](CC(=O)OC(C)(C)C)c1nnc(C)n1-2 [NCGC00250412-19]", "excess over highest single agent": -18.3}
{"smiles": "CNC(=O)c1c(F)cccc1Nc1nc(Nc2cc3c(cc2OC)CCN3C(=O)CN(C)C)nc2[nH]ccc12", "note": "+ Cc1sc2c(c1C)C(c1ccc(Cl)cc1)=N[C@@H](CC(=O)OC(C)(C)C)c1nnc(C)n1-2 [NCGC00250412-19]", "excess over highest single agent": -63.2}
{"smiles": "CCn1c(=O)c2c(nc(/C=C/c3ccc(OC)c(OC)c3)n2C)n(CC)c1=O", "note": "+ Cc1sc2c(c1C)C(c1ccc(Cl)cc1)=N[C@@H](CC(=O)OC(C)(C)C)c1nnc(C)n1-2 [NCGC00250412-19]", "excess over highest single agent": 11.3}
{"smiles": "C[C@@H]1C/C=C/C=C/C=C/C=C/[C@H](O[C@@H]2O[C@H](C)[C@@H](O)[C@H](N)[C@@H]2O)C[C@@H]2O[C@](O)(C[C@@H](O)C[C@H]3O[C@@H]3/C=C/C(=O)O1)C[C@H](O)[C@H]2C(=O)O", "note": "+ Cc1sc2c(c1C)C(c1ccc(Cl)cc1)=N[C@@H](CC(=O)OC(C)(C)C)c1nnc(C)n1-2 [NCGC00250412-19]", "excess over highest single agent": 52.8}
{"smiles": "CN1CCN2c3ncccc3Cc3ccccc3C2C1", "note": "(stereo unspecified) + Cc1sc2c(c1C)C(c1ccc(Cl)cc1)=N[C@@H](CC(=O)OC(C)(C)C)c1nnc(C)n1-2 [NCGC00250412-19]", "excess over highest single agent": -12.2}
{"smiles": "CC(C)N(CC[C@H](c1ccccc1)c1cc(CO)ccc1O)C(C)C", "note": "+ Cc1sc2c(c1C)C(c1ccc(Cl)cc1)=N[C@@H](CC(=O)OC(C)(C)C)c1nnc(C)n1-2 [NCGC00250412-19]", "excess over highest single agent": -7.25}
{"smiles": "CC[C@H](NC(=O)[C@H](C)NC)C(=O)N1C[C@@H](O)C[C@H]1Cc1c(-c2[nH]c3cc(F)ccc3c2C[C@@H]2C[C@H](O)CN2C(=O)[C@H](CC)NC(=O)[C@H](C)NC)[nH]c2cc(F)ccc12", "note": "+ Cc1sc2c(c1C)C(c1ccc(Cl)cc1)=N[C@@H](CC(=O)OC(C)(C)C)c1nnc(C)n1-2 [NCGC00250412-19]", "excess over highest single agent": -61.9}
{"smiles": "COc1ccc(N(C(=O)Oc2c(C)cccc2C)c2ccnc(Nc3ccc(N4CCN(C)CC4)cc3)n2)c(OC)c1", "note": "+ Cc1sc2c(c1C)C(c1ccc(Cl)cc1)=N[C@@H](CC(=O)OC(C)(C)C)c1nnc(C)n1-2 [NCGC00250412-19]", "excess over highest single agent": -226}
{"smiles": "CC(C)[C@H](N)C(=O)OCCOCn1cnc2c(=O)nc(N)[nH]c21", "note": "+ Cc1sc2c(c1C)C(c1ccc(Cl)cc1)=N[C@@H](CC(=O)OC(C)(C)C)c1nnc(C)n1-2 [NCGC00250412-19]", "excess over highest single agent": 43.6}
